Data as given in PubChem BioAssay AID504744 (Drosophila RNAi Screening Center, 2011).
The deposit covers about 23,000 reagents; shown is an unselected part of those with a known target gene and a result. In the full data, 98 (0.43%) were called active. 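Only hit calls are given; the phospho-dAkt signals, z-scores and hit direction were not deposited.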 A plus sign joins genes that one reagent is predicted to hit.

- Assay: 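Find genes whose loss alters insulin-driven dAkt phosphorylation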 (primary screen)
- Cell system: Drosophila Kc167 cells
- Reagent: long dsRNA against Drosophila genes, 250 ng dsRNA per well of a 384-well plate
- Duration: 3 days of knock-down, then overnight serum-free starvation before stimulation
- Conditions: bovine insulin at 387 nM for 10 minutes after 12 h without serum
- Measurement: 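Per-well phospho-dAkt level from an in-cell fluorescent antibody stain, divided by a DNA-dye signal; log2 residuals turned into z-scores that take cell number into account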
- Active means: 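Under insulin, a gene counts as a hit if the average z-score of two replicates lies above 2.5 or below -2.5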

Gene | DRSC id | Call
ng1 (GeneID 31300) | DRSC18802 | inactive
btz (GeneID 43331) | DRSC14566 | inactive
CG14989 (GeneID 38485) | DRSC08448 | inactive
ova (GeneID 34362) | DRSC02879 | inactive
chp (GeneID 43690) | DRSC16925 | inactive
Smyd3 (GeneID 44554) | DRSC17744 | inactive
ap (GeneID 35509) | DRSC04917 | inactive
CG31007 (GeneID 318553) | DRSC14029 | inactive
Pss (GeneID 40281) | DRSC11757 | inactive
pinta (GeneID 42635) | DRSC14698 | inactive
Stam (GeneID 34505) | DRSC03444 | inactive
Tpr2 (GeneID 34984) | DRSC03461 | inactive
CG42450 (GeneID 32874) | DRSC20022 | inactive
CG42450 (GeneID 32874) | DRSC22751 | inactive
Ucp4A (GeneID 32764) | DRSC19996 | inactive
Cdk5 (GeneID 36727) | DRSC07359 | inactive
br (GeneID 44505) | DRSC17691 | inactive
br (GeneID 44505) | DRSC17789 | inactive
br (GeneID 44505) | DRSC18743 | inactive
br (GeneID 44505) | DRSC18744 | inactive
Vha68-2 (GeneID 45012) | DRSC02721 | inactive
CG34032 (retired record) (GeneID 3885630) | DRSC09225 | inactive
VepD (GeneID 117331) | DRSC22318 | inactive
betaTub97EF (GeneID 43359) | DRSC15666 | inactive
betaTub97EF (GeneID 43359) | DRSC15667 | inactive
betaTub97EF (GeneID 43359) | DRSC15668 | inactive
CG7991 (GeneID 38214) | DRSC08609 | inactive
CR31292 (GeneID 10178952) | DRSC13120 | inactive
CG33127 (GeneID 318893) | DRSC00011 | inactive
CG7778 (GeneID 34147) | DRSC03067 | inactive
Cpr76Ba (GeneID 40120) | DRSC11060 | inactive
Dera (GeneID 36358) | DRSC07207 | inactive
Dera (GeneID 36358) | DRSC21336 | inactive
DIP-alpha (GeneID 31322) | DRSC17891 | inactive
DIP-alpha (GeneID 31322) | DRSC17892 | inactive
Gr23a (GeneID 33453) | DRSC00410 | inactive
IRSp53 (GeneID 39258) | DRSC10891 | inactive
dnk (GeneID 42273) | DRSC16933 | inactive
CG14655 (GeneID 40594) | DRSC12241 | inactive
CG4053 (GeneID 42070) | DRSC15538 | inactive
CG3309 (GeneID 31450) | DRSC18301 | inactive
Ip259 (GeneID 34419) | DRSC03352 | inactive
CG8578 (GeneID 32540) | DRSC20114 | inactive
CG9459 (GeneID 41213) | DRSC16496 | inactive
CG30222 (GeneID 50129) | DRSC04125 | inactive
CG30222 (GeneID 50129) | DRSC04262 | inactive
Pgcl (GeneID 30984) | DRSC18815 | inactive
CG32152 (GeneID 317885) | DRSC22906 | inactive
CG12848 (GeneID 50139) | DRSC04128 | inactive
CG32452 (GeneID 318035) | DRSC11581 | inactive
CG32452 (GeneID 318035) | DRSC22250 | inactive
VhaM9.7-b (GeneID 40389) | DRSC11841 | inactive
FER (GeneID 41118) | DRSC12735 | inactive
FER (GeneID 41118) | DRSC16673 | inactive
CG15141 (GeneID 35044) | DRSC02441 | inactive
CG15141 (GeneID 35044) | DRSC02442 | inactive
nwk (GeneID 39052) | DRSC10442 | inactive
ZnT63C (GeneID 38407) | DRSC08032 | inactive
ZnT63C (GeneID 38407) | DRSC08033 | inactive
ZnT63C (GeneID 38407) | DRSC08519 | inactive
ZnT63C (GeneID 38407) | DRSC21989 | inactive
CG8531 (GeneID 36584) | DRSC07209 | inactive
RpS25 (GeneID 41343) | DRSC16837 | inactive
CG5326 (GeneID 42655) | DRSC13568 | inactive
CG5326 (GeneID 42655) | DRSC15770 | inactive
mRpL19 (GeneID 41028) | DRSC16367 | inactive
mRpL19 (GeneID 41028) | DRSC21618 | inactive
flw (GeneID 44289) | DRSC17992 | inactive
flw (GeneID 44289) | DRSC18774 | inactive
CG31038 (GeneID 43535) | DRSC15051 | inactive
CG31038 (GeneID 43535) | DRSC16326 | inactive
CG31038 (GeneID 43535) | DRSC16327 | inactive
CG33914 (GeneID 3772464) | DRSC05033 | inactive
senju (GeneID 33734) | DRSC02366 | inactive
Cpr30F (GeneID 318997) | DRSC02908 | inactive
CG31200 (GeneID 326124) | DRSC15285 | inactive
CG32833 (GeneID 37650) | DRSC04596 | inactive
Or33b (GeneID 34602) | DRSC03387 | inactive
mamo (GeneID 32353) | DRSC19370 | inactive
CG13930 (GeneID 38210) | DRSC08399 | inactive
CG8401 (GeneID 36770) | DRSC07165 | inactive
SCaMC (GeneID 39415) | DRSC10293 | inactive
SCaMC (GeneID 39415) | DRSC10415 | inactive
CG31661 (GeneID 33330) | DRSC00296 | inactive
Pex16 (GeneID 40293) | DRSC11750 | inactive
CG10962 (GeneID 31824) | DRSC18421 | inactive
mael (GeneID 40489) | DRSC11894 | inactive
CG6005 (GeneID 42279) | DRSC15945 | inactive
CG9512 (GeneID 32419) | DRSC20189 | inactive
CG9451 (GeneID 40118) | DRSC11074 | inactive
CG7460 (GeneID 39973) | DRSC10850 | inactive
CG9518 (GeneID 32416) | DRSC20194 | inactive
CG15093 (GeneID 37166) | DRSC06522 | inactive
bur (GeneID 45830) | DRSC03163 | inactive
bip1 (GeneID 38891) | DRSC11327 | inactive
CSN6 (GeneID 42661) | DRSC16593 | inactive

Part of the list above, reformatted:
ZnT63C (GeneID 38407) [DRSC21989]
- Call: inactive

CG8531 (GeneID 36584) [DRSC07209]
- Call: inactive

RpS25 (GeneID 41343) [DRSC16837]
- Call: inactive

CG5326 (GeneID 42655) [DRSC13568]
- Call: inactive

CG5326 (GeneID 42655) [DRSC15770]
- Call: inactive

mRpL19 (GeneID 41028) [DRSC16367]
- Call: inactive

mRpL19 (GeneID 41028) [DRSC21618]
- Call: inactive

flw (GeneID 44289) [DRSC17992]
- Call: inactive

flw (GeneID 44289) [DRSC18774]
- Call: inactive

CG31038 (GeneID 43535) [DRSC15051]
- Call: inactive

CG31038 (GeneID 43535) [DRSC16326]
- Call: inactive

CG31038 (GeneID 43535) [DRSC16327]
- Call: inactive

CG33914 (GeneID 3772464) [DRSC05033]
- Call: inactive

senju (GeneID 33734) [DRSC02366]
- Call: inactive

Cpr30F (GeneID 318997) [DRSC02908]
- Call: inactive

CG31200 (GeneID 326124) [DRSC15285]
- Call: inactive

Continued.
Gene | DRSC id | Call
CG31637 (GeneID 33914) | DRSC02270 | inactive
CG31637 (GeneID 33914) | DRSC03263 | inactive
mus101 (GeneID 48309) | DRSC19388 | inactive
CG13285 (GeneID 38623) | DRSC09960 | inactive
Sox14 (GeneID 37822) | DRSC04656 | inactive
CG14853 (GeneID 41771) | DRSC14977 | inactive
CG14853 (GeneID 41771) | DRSC21528 | inactive
Acp98AB (retired record) (GeneID 44933) | DRSC21837 | inactive
H15 (GeneID 33769) | DRSC03339 | inactive
H15 (GeneID 33769) | DRSC22199 | inactive
PIG-L (GeneID 42388) | DRSC15577 | inactive
CG14232 (GeneID 32983) | DRSC19588 | inactive
eRF3 (GeneID 34658) | DRSC03322 | inactive
IntS2 (GeneID 32745) | DRSC20094 | inactive
CG9997 (GeneID 43395) | DRSC16591 | inactive
CG17768 + LSm-4 | DRSC02845 | inactive
dwg (GeneID 31265) | DRSC18766 | inactive
ssp5 (GeneID 41465) | DRSC14955 | inactive
mmd (GeneID 32561) | DRSC19672 | inactive
mmd (GeneID 32561) | DRSC19673 | inactive
mmd (GeneID 32561) | DRSC20161 | inactive
stet (GeneID 38169) | DRSC08246 | inactive
stet (GeneID 38169) | DRSC08283 | inactive
elfless (GeneID 35076) | DRSC02451 | inactive
SrpRbeta (GeneID 47283) | DRSC21668 | inactive
CG31793 (GeneID 326161) | DRSC02605 | inactive
tho2 (GeneID 326153) | DRSC00646 | inactive
Peritrophin-15b (GeneID 50432) | DRSC02266 | inactive
CG32523 (GeneID 318071) | DRSC20510 | inactive
kraken (GeneID 33265) | DRSC00824 | inactive
Galphao (GeneID 36104) | DRSC07430 | inactive
Flo2 (GeneID 32425) | DRSC19062 | inactive
Flo2 (GeneID 32425) | DRSC20244 | inactive
CG8405 (GeneID 36772) | DRSC05599 | inactive
CG8405 (GeneID 36772) | DRSC07166 | inactive
del (GeneID 35380) | DRSC03170 | inactive
Nfs1 (GeneID 34613) | DRSC02154 | inactive
rngo (GeneID 32616) | DRSC19903 | inactive
pit (GeneID 42595) | DRSC17025 | inactive
pit (GeneID 42595) | DRSC22798 | inactive
pdm2 (GeneID 34673) | DRSC02496 | inactive
pdm2 (GeneID 34673) | DRSC02497 | inactive
pdm2 (GeneID 34673) | DRSC03587 | inactive
Hr3 (GeneID 36073) | DRSC06118 | inactive
Hr3 (GeneID 36073) | DRSC07441 | inactive
CG33966 (GeneID 3885642) | DRSC08256 | inactive
swaPsi (GeneID 3771807) | DRSC21685 | inactive
CG11699 (GeneID 32101) | DRSC19419 | inactive
SdhBL (GeneID 32887) | DRSC20039 | inactive
PGAP3 (GeneID 35570) | DRSC04989 | inactive
CG32437 (GeneID 40366) | DRSC11760 | inactive
CG32437 (GeneID 40366) | DRSC22020 | inactive
CG5348 (GeneID 36877) | DRSC06933 | inactive
Sf3b5 (GeneID 50007) | DRSC14460 | inactive
beat-IIIa (GeneID 35035) | DRSC01575 | inactive
beat-IIIa (GeneID 35035) | DRSC01577 | inactive
beat-IIIa (GeneID 35035) | DRSC02178 | inactive
CG10953 (GeneID 36941) | DRSC06021 | inactive
lqfR (GeneID 42632) | DRSC14703 | inactive
lqfR (GeneID 42632) | DRSC14704 | inactive
CG9646 (GeneID 36918) | DRSC07342 | inactive
